The other results are listed elsewhere or left out.

The source of these data is PMC7819943, “Rice protein-binding microarrays: a tool to detect cis-acting elements near promoter regions in rice”.

For the experiment, the target named is T1, OsSMF1 (Oryza sativa, UniProt Q6ZLB0 1-436).
T1 sequence: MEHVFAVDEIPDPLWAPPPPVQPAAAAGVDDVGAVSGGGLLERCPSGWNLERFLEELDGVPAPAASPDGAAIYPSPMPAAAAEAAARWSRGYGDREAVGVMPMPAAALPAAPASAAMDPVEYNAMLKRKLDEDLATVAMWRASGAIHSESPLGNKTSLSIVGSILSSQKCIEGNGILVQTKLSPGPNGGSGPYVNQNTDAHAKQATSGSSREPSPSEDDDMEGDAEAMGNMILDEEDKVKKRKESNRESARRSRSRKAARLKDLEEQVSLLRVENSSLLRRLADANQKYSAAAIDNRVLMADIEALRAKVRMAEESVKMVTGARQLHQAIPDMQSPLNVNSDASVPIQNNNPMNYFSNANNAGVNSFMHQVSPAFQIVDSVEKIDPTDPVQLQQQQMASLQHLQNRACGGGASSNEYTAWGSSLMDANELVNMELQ
In words: protein-binding microarray (RPBM); PBS, 2% BSA, 51.3 ng/ul salmon testes DNA, 50 uM zinc acetate, 200 nM TF, 25 C, 1 h; high values mean tight binding. As to conditions: protein: recombinant; tags: N-terminal polyhistidine and DsRed monomer fusion (pET32a); chain copies: 2; label: CyDye5-dUTP incorporated in the synthesized complementary strand; 3' TTTTT single-stranded linker to array surface; dsDNA, one strand shown. A digest of the protocol: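 Binding signal is defined as the fluorescence intensity of each feature in arbitrary units, read on an Axon 4000B scanner. Transcription factors with N-terminal polyhistidine and DsRed fusions came from E. coli BL21-CodonPlus and were purified on Ni–NTA. They were incubated at 200 nM for 1 h at 25 °C on a custom Agilent array that had been made double-stranded with Cy5-dUTP, with 50 µM zinc acetate present, and the array was washed.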
With “CGTTTTGATAGCGAGGCGTTAGTTCGCTGATCACCCAATCCGGAGTCACCTAGTGCAG”, the binding signal was 23000 fluorescence intensity (a.u.).
In the case of “ATATATATATATATATATATAGACGTATTCCTGTATCCGCCGGAGTCACCTAGTGCAG” it was 4440 fluorescence intensity (a.u.); in that of “CACGCAAACCAACTCGCCACGTAGACTTCTATAAAACCCACGGAGTCACCTAGTGCAG”, 9360 fluorescence intensity (a.u.); in that of “GGAGGGCAGGTGAGGTGAGGTGCGTGTTGTGTGTGTGGGTCGGAGTCACCTAGTGCAG”, 4160 fluorescence intensity (a.u.).
For “AAGAAGAAGAGTGACGTGATCCATTCATTCGTTCGTTCACCGGAGTCACCTAGTGCAG” the value was 4880 fluorescence intensity (a.u.); for “TTTCTTTGTGTTTTGTTTCCTTGTAGGGTATGCTAGATCTCGGAGTCACCTAGTGCAG”, 3410 fluorescence intensity (a.u.); for “TTATATACGCATATACAAAGCTTGCATACGTGTATACAAACGGAGTCACCTAGTGCAG”, 5680 fluorescence intensity (a.u.).
In the case of “AGGGGATGGGGATGGGGATGGAGACGGGGACTTGGAACGACGGAGTCACCTAGTGCAG” it was 3580 fluorescence intensity (a.u.); in that of “GGCTTTATGCAAGTAACCAGACACGTCTTTTAGCCTTTTCCGGAGTCACCTAGTGCAG”, 4900 fluorescence intensity (a.u.).
With “TCGCCAGTATCACTGACGCCGCTGACGAGTCGGAGTCGGACGGAGTCACCTAGTGCAG”, the binding signal is 4700 fluorescence intensity (a.u.).
In the case of “TAGTTATATTGTTGCCTAGAGGATTTTGGACACGTTTACACGGAGTCACCTAGTGCAG” it was 3220 fluorescence intensity (a.u.); in that of “GGCGCGTCGTAGCTGACGAGGCTCCCCGTCGTCGCCGTGGCGGAGTCACCTAGTGCAG”, 7380 fluorescence intensity (a.u.).
For “ACCATGGTCTAACCTACGTGGCATGCCACGTGTGCGTGTGCGGAGTCACCTAGTGCAG” the value was 56000 fluorescence intensity (a.u.); for “TAGTACGGACTTCAAGACGCAATGTGTGTATGACAGGTGGCGGAGTCACCTAGTGCAG”, 4200 fluorescence intensity (a.u.); for “AAATCGGCTCCACCTTCCCTGTCACCATGCTAATCTTTCCCGGAGTCACCTAGTGCAG”, 4540 fluorescence intensity (a.u.).
In the case of “GGACCCACGTGGCAGATTTTGGCGCCGCCGCGTCGCCTCTCGGAGTCACCTAGTGCAG” it was 17600 fluorescence intensity (a.u.); in that of “GTTTGTCACCCATGAGTCATGACTAGCGTCATGTTGTGTTCGGAGTCACCTAGTGCAG”, 7660 fluorescence intensity (a.u.); in that of “TATAATGTTTGGGTGCGTTTAATTCTATTTGAATTACACTCGGAGTCACCTAGTGCAG”, 48000 fluorescence intensity (a.u.).
Take “ACGTGTACGGCGCGGGGTGGAGGTGAGGGGTGGTGGGGCCCGGAGTCACCTAGTGCAG”: the binding signal is 7050 fluorescence intensity (a.u.).
For the sequence “CTTTTCAGTATGACTGTATGAGCGAGCCTCCGCCCGCCACCGGAGTCACCTAGTGCAG”, the binding signal is 5400 fluorescence intensity (a.u.).
Turning to “TCTCTTAGCCTTAGCTCAGCTCGTCACGTTCACGTCCCAACGGAGTCACCTAGTGCAG”, the binding signal was 3430 fluorescence intensity (a.u.).
For “ATTTGTCTACCCAAGATGATTGGAGCCACACGTCGGTCAGCGGAGTCACCTAGTGCAG” the value was 4220 fluorescence intensity (a.u.); for “TCACACGCGTCCGCATCAACCGAGCAATGAATCACGATCCCGGAGTCACCTAGTGCAG”, 3870 fluorescence intensity (a.u.); for “ATAACAGCGGGCCTTACGTGTACATGATAGTATATAGTACCGGAGTCACCTAGTGCAG”, 7000 fluorescence intensity (a.u.).
In the case of “GTCCTTCTGACATTCTATCTCAGCTAATTGAGTCATCACTCGGAGTCACCTAGTGCAG” it was 4700 fluorescence intensity (a.u.); in that of “TCTGTTGCTGACTAGTGCCCTTACCTCTACGTCTGGTTTACGGAGTCACCTAGTGCAG”, 4320 fluorescence intensity (a.u.); in that of “GGTGATATACCTTGTCTAGCCTTCGCCAACGCATACAGATCGGAGTCACCTAGTGCAG”, 3970 fluorescence intensity (a.u.).
For “CTATTGTTGCACTCACACTCCAAGCTGGAGTAGCTAGCTGCGGAGTCACCTAGTGCAG” the value was 26700 fluorescence intensity (a.u.); for “AGGATCGATTTACTGCGTCATCATCACAGCTCCAGCGGCCCGGAGTCACCTAGTGCAG”, 8740 fluorescence intensity (a.u.); for “TGGACTGACATATGGGGCCCACGTGGGTCCCACCTTATTACGGAGTCACCTAGTGCAG”, 6140 fluorescence intensity (a.u.).
“GTGTAATAGTGTGTGCGTGGGTGCGTCTGCAATGTAACTGCGGAGTCACCTAGTGCAG”: the binding signal was 4790 fluorescence intensity (a.u.).
As to “TTTTCTACAGCGCTGCTATAGCTACTTGTCAGCTGATGTACGGAGTCACCTAGTGCAG”, the binding signal is 3620 fluorescence intensity (a.u.).
For “ACCATGCCTTCCTCCTCTCCACGTCCCCTGACGCAGCCTTCGGAGTCACCTAGTGCAG” the value was 6080 fluorescence intensity (a.u.); for “AGCAAGCAAAGCCGAAGAATTGTTACACGGCCAAAGTGGACGGAGTCACCTAGTGCAG”, 41200 fluorescence intensity (a.u.); for “ATTCATTGGAAAATAATTGTTTGCGTCACGTGTGGATATCCGGAGTCACCTAGTGCAG”, 5550 fluorescence intensity (a.u.).
In the case of “CCGATAACATGGGCCGGTATCTGTAAATGGGCCGAAAGGGCGGAGTCACCTAGTGCAG” it was 3200 fluorescence intensity (a.u.).
For “ATGACGATGGTTAATCCAAATAACATATTGGCCCGGGTTCCGGAGTCACCTAGTGCAG”, the binding signal was 49900 fluorescence intensity (a.u.).
In the case of “CAAACTCCTACCCAGGCAGATGACGCTCCATGGAGTCATGCGGAGTCACCTAGTGCAG” it was 3280 fluorescence intensity (a.u.); in that of “ACCGTTCCGTTTTCCGTGCGGGGAGATTGGGTTCCCATCCCGGAGTCACCTAGTGCAG”, 14400 fluorescence intensity (a.u.).
For “GTCGCCTGATAATAACATCTACGTGTTGTTGCCAGCTGATCGGAGTCACCTAGTGCAG” the value was 4710 fluorescence intensity (a.u.); for “GATTTGGGATTTTGTTATAGCGAGCGGACTGTCATCAATACGGAGTCACCTAGTGCAG”, 3480 fluorescence intensity (a.u.); for “GGTGCTAATTGCGCGGGCTACCCAGCTAGTTCGATTGAATCGGAGTCACCTAGTGCAG”, 33800 fluorescence intensity (a.u.).
